Laboratory results taken from patent US7563590B2, “Methods of quantifying methotrexate metabolites” (Cypress Bioscience Inc., priority 2002, dated 2009).

Assay: Intra-day and inter-day accuracy of quantitation of MTX and MTXPGs spiked in RBC extracts (conversion to MTX, HPLC with post-column photolysis and fluorimetry)
Source text: The MTX detection system was based on an HPLC system (Agilent 1100 HPLC chemstation system) equipped with a C18 reversed phase column (25 cm×4.6 mm X Terra MS C18, 5 micrometer particle size; Waters, Milford, Mass.), a post-column photochemical reactor unit (Aura Industries; New York, N.Y.) and a post-reactor unit fluorometer detector. The system also included a C18 pre-column that was changed every 200 injections.
Samples containing 20 to 1000 nmol/L MTX (Sigma, St. Louis, USA) in RBC extracts were run in the HPLC system at a flow rate of 1 ml/min, with a 15-minute linear gradient from 2% acetonitrile/98% mobile phase A (10 mM ammonium acetate, pH 6.5, unless otherwise indicated and 0.2% hydrogen peroxide in water) to 25% acetonitrile/75% mobile phase A, unless otherwise indicated. After 15 minutes, mobile phase was returned to 100% mobile phase A and the column was re-equilibrated for 5 minutes. The samples were maintained at 4° C. and injected every 20 minutes with an autoinjector.
Eluate from the column passed through the photochemical reactor unit in TEFLON™ tubing ( 1/16 inch outer diameter, 0.25 mm inner diameter, 8 meter length) that was connected on-line after the column and before the fluorometer detector and assembled as a knitted coil. The knitted coil was extended lengthwise through the photochemical reactor unit which also housed an elongated 254 nm low pressure mercury ultraviolet lamp (Aura Industries; New York, N.Y.). The time of irradiation of MTX in the photochemical reactor was 24 seconds. Irradiation for less than 24 seconds was achieved by masking all but a portion of the elongated lamp with foil such that only a portion of the knitted coil was irradiated. In particular, the lamp was masked such that only 1 meter of the coil was irradiated with the lamp which at a flow rate of 1 ml/min corresponded to 3 seconds irradiation. Methotrexate photolytic products were measured at an excitation wavelength set at 400 nm and an emission wavelength at 470 nm, unless otherwise indicated. Chromatograms were acquired and analyzed on a Hewlett-Packard Vector XA computer. The retention times described herein for the above-described HPLC system were measured from the time of injection to time of detection at the post-reactor unit fluorometer detector.
MTXPGs were enzymatically converted to MTX by incubation with RBC extract and plasma as follows. RBCs were isolated from healthy donors (Blood bank; San Diego, Calif.) Hemolysates were prepared having 0.88×10^9 RBC per 100 μl. For spiked samples, MTXPG (Schirks Laboratories; Jona, Switzerland) was added to RBC extracts at a final concentration of 1 μM (from stock solutions containing 100 μM MTXPG in 0.1 N potassium hydroxide). Reconstituted plasma was prepared from lyophilized plasma (Sigma, St. Louis, USA; Cat. No. P9523) and 100 μl was added to 50 μl of RBC extract, mixed for 30 seconds, and 100 μl of buffer containing 100 mM potassium phosphate pH 4.5 and 150 mM mercaptoethanol was added. […] Samples were incubated for 12-14 hours, unless otherwise indicated, in the dark at 37° C. After incubation 30 μl of 70% perchloric acid was added to the mixture, vortexed for 15 seconds and centrifuged for 10 minutes. A total volume of 80 μl was injected onto the HPLC system for analysis using the MTX detection system described in Example I.
The intra-day accuracy and inter-day accuracy for quantitation of MTX and MTXPGs are shown in Table I. RBC extracts were incubated with 20, 100 or 500 nmol/L of MTX, MTXPG2 or MTXPG2-7 (Target concentrations; see Table I), and the observed concentration of MTX was determined by the HPLC method described in Example I. For the intra-day accuracy assessment, the mean observed MTX concentration was determined for 10 spiked replicates at each target concentration (see Table I). The mean observed MTX concentrations for inter-day accuracy assessment were based on three replicates from five different days (Table 1). […]

[1] = Inter-day (n = 5), target conc. 50.0 nmol/L
[2] = Inter-day (n = 5), target conc. 250.0 nmol/L
[3] = Inter-day (n = 5), target conc. 500.0 nmol/L
[4] = Intra-day (n = 10), target conc. 50.0 nmol/L
[5] = Intra-day (n = 10), target conc. 250.0 nmol/L
[6] = Intra-day (n = 10), target conc. 500.0 nmol/L

Row | Structure (SMILES) | Mean accuracy of target value [1] [%] | Mean observed MTXPG1 conc. [1] [nmol/L] | Mean accuracy of target value [2] [%] | Mean observed MTXPG1 conc. [2] [nmol/L] | Mean accuracy of target value [3] [%] | Mean observed MTXPG1 conc. [3] [nmol/L] | Mean accuracy of target value [4] [%] | Mean observed MTXPG1 conc. [4] [nmol/L] | Mean accuracy of target value [5] [%] | Mean observed MTXPG1 conc. [5] [nmol/L] | Mean accuracy of target value [6] [%] | Mean observed MTXPG1 conc. [6] [nmol/L]
1 | CN(Cc1cnc2nc(N)nc(N)c2n1)c1ccc(C(=O)N[C@@H](CCC(=O)N[C@@H](CCC(=O)O)C(=O)O)C(=O)O)cc1 [MTXPG2] | 97.7 | 48.8 | 95.4 | 238.5 | 98.2 | 490.8 | 96.4 | 48.2 | 92.5 | 231.1 | 94.6 | 473.2
2 | CN(Cc1cnc2nc(N)nc(N)c2n1)c1ccc(C(=O)N[C@@H](CCC(=O)O)C(=O)O)cc1 [MTX, methotrexate] | 97.9 | 48.9 | 104.3 | 260.8 | 103.5 | 517.3 | 90.0 | 45.0 | 100.1 | 250.2 | 100.8 | 504.2
